# According to the supplement of paper PMC7666118:
# By UniProt entry, the sequences of proteins in these tests, tags left out. Where a name states a change or a piece, a line headed by the entry shows the natural chain unless it says otherwise.
# UniProt O96017, whole entry: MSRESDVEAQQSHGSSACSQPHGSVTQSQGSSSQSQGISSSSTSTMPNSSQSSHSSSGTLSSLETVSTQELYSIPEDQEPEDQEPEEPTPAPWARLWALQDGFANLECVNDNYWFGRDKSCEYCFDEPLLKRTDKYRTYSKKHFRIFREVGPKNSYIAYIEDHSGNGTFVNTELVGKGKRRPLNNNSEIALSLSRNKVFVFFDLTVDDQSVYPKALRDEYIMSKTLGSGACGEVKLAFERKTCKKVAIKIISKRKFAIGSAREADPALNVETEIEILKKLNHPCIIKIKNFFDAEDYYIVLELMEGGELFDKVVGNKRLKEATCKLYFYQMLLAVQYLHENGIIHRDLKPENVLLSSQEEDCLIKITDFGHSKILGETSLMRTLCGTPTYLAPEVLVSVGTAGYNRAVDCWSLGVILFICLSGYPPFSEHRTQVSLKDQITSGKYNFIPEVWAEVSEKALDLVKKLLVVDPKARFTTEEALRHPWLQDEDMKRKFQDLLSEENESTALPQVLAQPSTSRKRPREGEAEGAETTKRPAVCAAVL
# UniProt P31327: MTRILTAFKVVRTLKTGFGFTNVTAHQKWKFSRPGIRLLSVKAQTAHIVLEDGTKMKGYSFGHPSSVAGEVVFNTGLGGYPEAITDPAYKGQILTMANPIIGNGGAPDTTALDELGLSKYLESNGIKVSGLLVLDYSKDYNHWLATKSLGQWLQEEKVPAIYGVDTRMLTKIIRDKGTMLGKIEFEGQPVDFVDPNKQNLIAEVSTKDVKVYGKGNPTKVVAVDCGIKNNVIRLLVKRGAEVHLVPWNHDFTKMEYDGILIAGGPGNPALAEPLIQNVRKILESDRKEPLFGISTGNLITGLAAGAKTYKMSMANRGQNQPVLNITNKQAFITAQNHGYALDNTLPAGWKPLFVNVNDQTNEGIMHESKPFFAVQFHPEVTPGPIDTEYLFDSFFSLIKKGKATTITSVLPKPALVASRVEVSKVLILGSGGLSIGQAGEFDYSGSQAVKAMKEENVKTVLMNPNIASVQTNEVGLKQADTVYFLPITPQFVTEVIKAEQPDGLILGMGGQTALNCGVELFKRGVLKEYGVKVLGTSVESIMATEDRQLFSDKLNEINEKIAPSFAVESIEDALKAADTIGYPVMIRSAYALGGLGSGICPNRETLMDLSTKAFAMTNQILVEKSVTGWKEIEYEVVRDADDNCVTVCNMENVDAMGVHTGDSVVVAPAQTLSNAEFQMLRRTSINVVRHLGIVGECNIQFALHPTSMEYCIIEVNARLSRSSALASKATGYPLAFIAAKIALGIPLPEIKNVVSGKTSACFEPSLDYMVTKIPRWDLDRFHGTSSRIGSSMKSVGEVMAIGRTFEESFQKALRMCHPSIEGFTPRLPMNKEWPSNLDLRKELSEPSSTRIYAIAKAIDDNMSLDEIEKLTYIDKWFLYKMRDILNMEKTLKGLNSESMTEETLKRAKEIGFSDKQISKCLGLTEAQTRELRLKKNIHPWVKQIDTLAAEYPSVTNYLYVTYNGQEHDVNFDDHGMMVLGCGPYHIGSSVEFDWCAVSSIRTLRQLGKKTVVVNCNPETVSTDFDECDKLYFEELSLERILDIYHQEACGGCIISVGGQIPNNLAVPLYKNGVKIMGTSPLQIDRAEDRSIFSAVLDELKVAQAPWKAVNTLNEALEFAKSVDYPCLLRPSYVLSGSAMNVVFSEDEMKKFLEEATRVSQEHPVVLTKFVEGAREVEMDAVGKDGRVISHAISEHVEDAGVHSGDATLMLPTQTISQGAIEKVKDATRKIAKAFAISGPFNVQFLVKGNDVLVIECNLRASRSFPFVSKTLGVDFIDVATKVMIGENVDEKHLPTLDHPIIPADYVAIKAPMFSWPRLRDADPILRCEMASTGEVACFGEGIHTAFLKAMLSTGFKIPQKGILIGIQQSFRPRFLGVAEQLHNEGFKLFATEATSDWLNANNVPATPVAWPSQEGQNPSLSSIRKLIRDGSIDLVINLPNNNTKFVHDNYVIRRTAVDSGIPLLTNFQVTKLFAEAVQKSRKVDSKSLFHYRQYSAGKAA
# UniProt P51798: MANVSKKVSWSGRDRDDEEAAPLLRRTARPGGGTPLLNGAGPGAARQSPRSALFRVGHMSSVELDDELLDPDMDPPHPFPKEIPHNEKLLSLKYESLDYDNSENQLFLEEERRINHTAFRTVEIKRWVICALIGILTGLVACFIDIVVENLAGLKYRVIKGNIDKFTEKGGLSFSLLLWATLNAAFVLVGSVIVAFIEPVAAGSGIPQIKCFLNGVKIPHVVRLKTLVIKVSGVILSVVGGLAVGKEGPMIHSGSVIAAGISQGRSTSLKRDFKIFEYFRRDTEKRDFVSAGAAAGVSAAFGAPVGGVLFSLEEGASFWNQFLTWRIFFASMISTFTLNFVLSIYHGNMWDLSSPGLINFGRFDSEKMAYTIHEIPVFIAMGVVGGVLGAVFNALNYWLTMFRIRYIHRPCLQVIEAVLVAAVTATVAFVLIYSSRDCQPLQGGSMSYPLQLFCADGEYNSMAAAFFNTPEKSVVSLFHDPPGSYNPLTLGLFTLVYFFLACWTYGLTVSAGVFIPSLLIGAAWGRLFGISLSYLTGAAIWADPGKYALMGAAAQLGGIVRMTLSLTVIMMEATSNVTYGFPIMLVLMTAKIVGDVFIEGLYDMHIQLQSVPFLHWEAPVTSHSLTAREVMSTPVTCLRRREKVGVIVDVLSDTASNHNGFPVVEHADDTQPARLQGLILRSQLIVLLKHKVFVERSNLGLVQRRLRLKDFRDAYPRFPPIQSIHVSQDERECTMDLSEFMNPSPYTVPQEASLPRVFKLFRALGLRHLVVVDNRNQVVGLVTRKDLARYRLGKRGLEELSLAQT
# UniProt Q49B96: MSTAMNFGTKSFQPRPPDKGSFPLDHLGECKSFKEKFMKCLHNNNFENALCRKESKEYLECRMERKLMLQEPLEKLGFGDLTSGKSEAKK
# UniProt Q9NWW5: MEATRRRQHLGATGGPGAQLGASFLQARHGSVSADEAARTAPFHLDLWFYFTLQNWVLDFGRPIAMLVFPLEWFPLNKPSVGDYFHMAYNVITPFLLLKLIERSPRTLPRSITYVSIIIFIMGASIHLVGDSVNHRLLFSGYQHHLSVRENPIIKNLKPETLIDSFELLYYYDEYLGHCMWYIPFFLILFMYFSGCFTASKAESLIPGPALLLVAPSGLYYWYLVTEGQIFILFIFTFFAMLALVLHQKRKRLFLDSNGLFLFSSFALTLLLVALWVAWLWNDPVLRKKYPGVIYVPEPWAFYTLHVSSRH
# UniProt P24386: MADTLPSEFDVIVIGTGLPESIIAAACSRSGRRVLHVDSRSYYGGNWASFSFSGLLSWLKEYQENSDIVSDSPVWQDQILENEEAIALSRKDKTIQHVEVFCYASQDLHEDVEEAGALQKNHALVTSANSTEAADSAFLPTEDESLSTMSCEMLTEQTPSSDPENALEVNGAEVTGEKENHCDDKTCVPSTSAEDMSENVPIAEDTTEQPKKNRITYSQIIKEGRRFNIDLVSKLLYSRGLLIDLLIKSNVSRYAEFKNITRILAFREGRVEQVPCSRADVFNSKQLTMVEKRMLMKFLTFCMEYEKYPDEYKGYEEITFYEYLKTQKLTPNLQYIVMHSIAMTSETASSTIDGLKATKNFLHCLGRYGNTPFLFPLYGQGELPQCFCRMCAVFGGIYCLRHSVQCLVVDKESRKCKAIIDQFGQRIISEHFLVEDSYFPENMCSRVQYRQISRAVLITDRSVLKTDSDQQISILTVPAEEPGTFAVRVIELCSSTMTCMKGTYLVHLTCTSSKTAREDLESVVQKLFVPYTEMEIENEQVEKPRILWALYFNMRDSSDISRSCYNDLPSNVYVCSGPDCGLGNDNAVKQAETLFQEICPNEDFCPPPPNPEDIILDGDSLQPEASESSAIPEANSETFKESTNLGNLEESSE
# UniProt Q96KA5: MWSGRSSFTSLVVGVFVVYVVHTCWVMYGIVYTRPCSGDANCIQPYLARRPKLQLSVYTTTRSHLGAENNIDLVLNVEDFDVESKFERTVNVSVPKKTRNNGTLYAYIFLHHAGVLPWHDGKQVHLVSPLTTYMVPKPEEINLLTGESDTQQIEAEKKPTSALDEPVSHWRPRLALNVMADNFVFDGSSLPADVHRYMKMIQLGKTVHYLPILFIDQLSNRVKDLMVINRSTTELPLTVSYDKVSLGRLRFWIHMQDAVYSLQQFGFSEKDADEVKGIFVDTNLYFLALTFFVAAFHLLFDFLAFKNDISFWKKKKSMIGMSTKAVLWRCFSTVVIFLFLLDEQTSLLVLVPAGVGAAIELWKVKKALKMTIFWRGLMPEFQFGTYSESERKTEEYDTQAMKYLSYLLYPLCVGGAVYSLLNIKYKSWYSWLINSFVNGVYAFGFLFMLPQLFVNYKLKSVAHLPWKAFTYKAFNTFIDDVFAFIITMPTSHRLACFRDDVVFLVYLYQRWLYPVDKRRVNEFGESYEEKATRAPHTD
# UniProt Q8WX92, whole entry: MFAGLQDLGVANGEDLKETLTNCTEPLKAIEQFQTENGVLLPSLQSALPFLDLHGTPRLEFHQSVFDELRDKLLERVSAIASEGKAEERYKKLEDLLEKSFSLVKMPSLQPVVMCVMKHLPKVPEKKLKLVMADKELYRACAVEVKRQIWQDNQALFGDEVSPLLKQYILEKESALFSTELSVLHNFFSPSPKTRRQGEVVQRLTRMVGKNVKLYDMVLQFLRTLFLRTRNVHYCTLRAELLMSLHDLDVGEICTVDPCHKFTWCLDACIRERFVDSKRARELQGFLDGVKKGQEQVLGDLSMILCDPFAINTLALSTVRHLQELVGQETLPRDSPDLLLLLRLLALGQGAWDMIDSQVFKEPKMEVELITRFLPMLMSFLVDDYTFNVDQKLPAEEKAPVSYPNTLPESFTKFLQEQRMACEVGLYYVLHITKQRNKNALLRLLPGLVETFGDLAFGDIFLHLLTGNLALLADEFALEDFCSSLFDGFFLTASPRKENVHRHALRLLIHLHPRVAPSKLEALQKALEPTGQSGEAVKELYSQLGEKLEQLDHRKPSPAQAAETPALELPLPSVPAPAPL
# The list shows a part of the results.
# Compound: COc1ccc(Cn2ccc3cc(C)c(C(=O)NO)cc32)cc1
# Assay: dose-dependent thermal stabilisation call (2D-TPP, DLPTP, 10% FDR) (binary (1 = stabilised)); higher = stabilised by the compound
# Details: system: HL-60 intact cells; concentration range 0.04-10 µM
# Method: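 2D thermal proteome profiling in intact HL-60 cells treated with BRD-3811 (0, 0.04, 0.29, 2, 10 uM) for 90 min at 37 C, then heated 3 min at one of 12 temperatures (42-63.9 C). Soluble protein was quantified by TMT10 MS. The value is the DLPTP call of the paper: dose-dependent thermal stabilisation over all temperatures at 10% FDR (F-test of a dose-response against a flat model); one experiment, one call per tested protein.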
row,Target,dose-dependent thermal stabilisation call
1,CHEK2 (UniProt O96017),inactive: 0
2,CPS1 (UniProt P31327),inactive: 0
3,CLCN7 (UniProt P51798),inactive: 0
4,COX19 (UniProt Q49B96),inactive: 0
5,CLN6 (UniProt Q9NWW5),inactive: 0
6,CHM (UniProt P24386),inactive: 0
7,CLPTM1L (UniProt Q96KA5),inactive: 0
8,COBRA1 (UniProt Q8WX92),inactive: 0
